From article PMC6189209 come the findings set out here.

By UniProt entry, the sequences of proteins in these tests, tags left out.
UniProt Q9UM07: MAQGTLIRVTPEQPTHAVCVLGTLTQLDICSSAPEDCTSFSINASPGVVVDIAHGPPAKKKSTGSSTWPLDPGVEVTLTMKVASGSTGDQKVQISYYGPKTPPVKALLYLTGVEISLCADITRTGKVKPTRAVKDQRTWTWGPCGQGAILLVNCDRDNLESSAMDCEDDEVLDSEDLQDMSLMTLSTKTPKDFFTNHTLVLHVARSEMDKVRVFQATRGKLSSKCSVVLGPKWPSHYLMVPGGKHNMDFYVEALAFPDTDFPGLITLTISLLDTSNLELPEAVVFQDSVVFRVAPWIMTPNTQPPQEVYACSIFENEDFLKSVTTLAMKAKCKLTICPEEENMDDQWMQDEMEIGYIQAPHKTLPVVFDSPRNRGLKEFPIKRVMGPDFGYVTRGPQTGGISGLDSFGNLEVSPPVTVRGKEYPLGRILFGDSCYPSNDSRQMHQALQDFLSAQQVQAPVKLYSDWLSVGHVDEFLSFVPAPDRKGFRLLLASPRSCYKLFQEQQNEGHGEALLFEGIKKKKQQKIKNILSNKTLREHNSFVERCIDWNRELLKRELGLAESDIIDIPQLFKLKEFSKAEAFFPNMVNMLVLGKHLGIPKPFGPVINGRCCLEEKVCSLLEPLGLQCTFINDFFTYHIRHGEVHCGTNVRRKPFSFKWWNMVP
UniProt P14598: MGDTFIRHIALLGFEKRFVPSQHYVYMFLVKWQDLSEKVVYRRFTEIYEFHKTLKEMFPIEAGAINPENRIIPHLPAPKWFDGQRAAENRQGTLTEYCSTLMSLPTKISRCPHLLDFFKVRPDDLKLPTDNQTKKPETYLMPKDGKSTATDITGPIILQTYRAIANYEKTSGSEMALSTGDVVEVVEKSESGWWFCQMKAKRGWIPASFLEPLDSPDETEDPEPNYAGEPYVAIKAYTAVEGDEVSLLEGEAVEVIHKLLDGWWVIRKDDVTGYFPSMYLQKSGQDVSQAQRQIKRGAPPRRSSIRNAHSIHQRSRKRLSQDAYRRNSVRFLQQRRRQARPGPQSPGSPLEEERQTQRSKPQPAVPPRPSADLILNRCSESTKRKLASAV
UniProt P19878: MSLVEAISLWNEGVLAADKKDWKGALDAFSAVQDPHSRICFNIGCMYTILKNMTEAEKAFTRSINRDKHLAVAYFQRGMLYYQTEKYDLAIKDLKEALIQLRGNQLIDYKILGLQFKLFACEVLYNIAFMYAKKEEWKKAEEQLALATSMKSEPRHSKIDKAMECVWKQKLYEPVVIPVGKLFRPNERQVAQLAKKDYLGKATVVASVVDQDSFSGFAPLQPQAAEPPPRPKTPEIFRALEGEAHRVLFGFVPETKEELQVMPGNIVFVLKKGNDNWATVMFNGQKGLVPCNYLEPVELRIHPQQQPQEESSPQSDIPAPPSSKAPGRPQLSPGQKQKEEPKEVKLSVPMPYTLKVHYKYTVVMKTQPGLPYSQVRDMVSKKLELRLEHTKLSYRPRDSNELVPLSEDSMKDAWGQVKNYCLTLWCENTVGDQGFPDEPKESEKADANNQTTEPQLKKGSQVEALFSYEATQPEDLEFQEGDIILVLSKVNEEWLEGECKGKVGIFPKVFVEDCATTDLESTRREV

No constants are given. Whether binding was seen depends on the method and setting. Binding seen in cells or lysates may run through a third protein. A yes stands for co-enrichment or nearness to the bait. Other partners may have been found. For part of these data: A no says only that the protein was not detected with the bait.

Assay [1] concerns the target protein arginine deiminase 4 (PAD4) (human (endogenous in neutrophils)) (UniProt Q9UM07). Nature of the assay: affinity purification with mass spectrometry; anti-PAD4 immunoprecipitates from ionomycin-treated neutrophils; TMT-labelled peptides, LC-MS/MS.
Assay [2] has the same target. Briefly: affinity purification with mass spectrometry; anti-PAD4 immunoprecipitates from resting or PMA-treated neutrophils; TMT-labelled peptides, LC-MS/MS.

Take “p47^phox (neutrophil cytosol factor 1, NCF1) (from UniProt P14598 1-390)”: the binding result was “no binding (only neutrophils treated with ionomycin)” in assay [1] and “binds” in assay [2]. With “p67^phox (neutrophil cytosol factor 2, NCF2) (from UniProt P19878 1-526)”, the binding result in assay [2] is recorded as “binds”.
